Measurements published in patent publication US20150216794A1, “METHODS OF TREATING PAIN ASSOCIATED WITH OSTEOARTHRITIS OF A JOINT WITH A TOPICAL FORMULATION OF A SPIRO-OXINDOLE COMPOUND” (IVAX International GmbH, priority 2014, published 2015).
“And” between values parts separate entries of the source, which are not always exact repeats. Identical values can stand only once. Further values from the same series stand in other lists.

Columns and labels:
[1] = minipig repeated dermal dosing: spiro-oxindole compound in plasma (LC-MS/MS); type: in vivo, Göttingen minipig; conditions: for spiro-oxindole compound in plasma, Mean: male minipigs, dermal ca 70 mg ointment/kg/day
Procedure: The study was carried out on minipigs to obtain information on plasma pharmacokinetics, tissue distribution and accumulation, excretion and metabolic profile of the spiro-oxindole compound after daily dermal administration of a pharmaceutical composition of the invention for 20 consecutive days followed by a single dose of [^14C]-spiro-oxindole compound Day 21.
Midazolam was administered on Days 0 and 20 to 3 male minipigs by bolus intravenous injection at a dose level 0.5 mg/kg.
The [^14C]-spiro-oxindole composition was prepared as follows:
Dosages of test formulations were applied with foil and spread using nitrile gloves to form a thin uniform layer to the treatment site.

[2] = minipig: tissue distribution of radioactivity and unchanged compound; type: in vivo, Göttingen minipig
Source text: The following tissues/organs were removed from the remaining carcass:
The urinary bladder from each animal was rinsed with saline and the washings discarded. Each section of the gastrointestinal tract wall was washed to remove contents (which were retained for analysis) prior to analysis. Remaining carcasses were discarded.

[3] = domestic pig joint penetration study: concentration in plasma; type: in vivo; conditions: 3.0 μL/cm^2 bid
Procedure: This study was conducted to evaluate the joint penetration, systemic plasma exposure and tissue distribution of the spiro-oxindole compound in domestic pigs following topical administration of a pharmaceutical composition utilized in the methods of the invention. Fifteen female pigs were used in this study with three pigs in each group. Beginning on Day 1, a pharmaceutical composition of the invention was topically applied to the left radiocarpal joint (carpus) and tibiotarsal joint (hock) twice daily (bid) for 17 days (34 applications) for Groups 1-4 and once daily (qd) for 17 days (17 applications) for Group 5. Pre-dose blood samples (prior to morning dosing) was collected on Days 2, 7, 10, 14 and 17. A full pharmacokinetic sampling was performed on Day 17 (post am dosing) at the following time points: 1, 2, 4, 8 and 12 hr. On the day of necropsy, Day 18, blood was collected prior to euthanasia, each pig was humanely euthanized and dorsal skin and muscle, liver, kidney, heart, lung, brain, intestine, fat, ovaries, urinary bladder, sciatic nerve, and skin, muscle, synovial membrane, and synovial fluid from all 4 joints (2 treated, left carpus and hock, and 2 untreated, right carpus and hock) was collected.
The dose volume (μL/cm^2) for the test pharmaceutical compositions was 3.0 μL/cm^2 for Groups 1, 2, 3 and 5 and 1.0 μL/cm^2 for Group 4.
Approximately 2 mL of whole blood was collected prior to the morning dose administration on Days 2, 7, 10, 14 and 17. A full pharmacokinetic profile sampling was performed on Day 17 after the morning dose administration at the following time points: 1, 2, 4, 8 and 12 hr. On the day of necropsy, Day 18, blood was collected prior to euthanasia.

O=C1N(Cc2ccc(C(F)(F)F)o2)c2ccccc2[C@]12COc1cc3c(cc12)OCO3 [spiro-oxindole compound, (S)-1′-{[5-(trifluoromethyl)furan-2-yl]methyl}spiro[furo[2,3-f][1,3]benzodioxole-7,3′-indol]-2′(1′H)one]
spiro-oxindole compound in plasma, Mean ([1]; Predose Day 2): 1.43 ng/mL
spiro-oxindole compound in plasma, Mean ([1]; Predose Day 14): 5.86 ng/mL
spiro-oxindole compound in plasma, Mean ([1]; Predose Day 21): 3.33 ng/mL
mean plasma concentration of spiro-oxindole compound ([1]; minipigs, 24 hours post last dose (Day 21)): 6060 µg/mL
mean radioactivity concentration ([2]; bone marrow): 154 ng equivalents spiro-oxindole compound/g
mean radioactivity concentration ([2]; fatty tissue, abdominal (white fat)): 273 ng equivalents spiro-oxindole compound/g
mean radioactivity concentration ([2]; fatty tissue, brown): 100 ng equivalents spiro-oxindole compound/g
mean radioactivity concentration ([2]; gall bladder contents): 4870 ng equivalents spiro-oxindole compound/g
total radioactivity ([2]; heart): 18.5 ng equiv spiro-oxindole compound/g
total radioactivity ([2]; liver): 74.9 ng equiv spiro-oxindole compound/g
mean radioactivity concentration ([2]; muscle underlying the dose site): 142 ng equivalents spiro-oxindole compound/g
mean radioactivity concentration ([2]; skin from the dose site): 25500 ng equivalents spiro-oxindole compound/g
mean radioactivity concentration ([2]; skin remote from the dose site): 111 ng equivalents spiro-oxindole compound/g
concentration in plasma, individual animals ([3]; G1 (#1-#3): 2% composition, Day 2 Before dosing): 0.00102 µg/mL and 0.00165 µg/mL
concentration in plasma, individual animals ([3]; G1 (#1-#3): 2% composition, Day 7 Before dosing): 0.00136 µg/mL and 0.00412 µg/mL
concentration in plasma, individual animals ([3]; G1 (#1-#3): 2% composition, Day 10 Before dosing): 0.00114 µg/mL and 0.00187 µg/mL
concentration in plasma, individual animals ([3]; G1 (#1-#3): 2% composition, Day 14 Before dosing): 0.00344 µg/mL and 0.00469 µg/mL
concentration in plasma, individual animals ([3]; G1 (#1-#3): 2% composition, Day 17 1 hour after dosing): 0.00759 µg/mL and 0.00271 µg/mL
concentration in plasma, individual animals ([3]; G1 (#1-#3): 2% composition, Day 17 2 hour after dosing): 0.0011 µg/mL and 0.00216 µg/mL
concentration in plasma, individual animals ([3]; G1 (#1-#3): 2% composition, Day 17 4 hour after dosing): 0.00822 µg/mL and 0.00167 µg/mL
concentration in plasma, individual animals ([3]; G1 (#1-#3): 2% composition, Day 17 8 hour after dosing): 0.00191 µg/mL and 0.00203 µg/mL
concentration in plasma, individual animals ([3]; G1 (#1-#3): 2% composition, Day 17 12 hour after dosing): 0.01028 µg/mL and 0.01285 µg/mL
concentration in plasma, individual animals ([3]; G1 (#1-#3): 2% composition, Day 17 Before dosing): 0.00113 µg/mL and 0.00143 µg/mL
concentration in plasma, individual animals ([3]; G1 (#1-#3): 2% composition, Day 18): 0.00394 µg/mL and 0.00324 µg/mL
concentration in plasma, individual animals ([3]; G2 (#4-#6): 4% composition, Day 2 Before dosing): 0.00124 µg/mL
concentration in plasma, individual animals ([3]; G2 (#4-#6): 4% composition, Day 7 Before dosing): 0.00174 µg/mL and 0.00266 µg/mL
concentration in plasma, individual animals ([3]; G2 (#4-#6): 4% composition, Day 10 Before dosing): 0.00534 µg/mL and 0.00211 µg/mL
concentration in plasma, individual animals ([3]; G2 (#4-#6): 4% composition, Day 14 Before dosing): 0.00435 µg/mL and 0.0034 µg/mL
concentration in plasma, individual animals ([3]; G2 (#4-#6): 4% composition, Day 17 1 hour after dosing): 0.00278 µg/mL and 0.00224 µg/mL
concentration in plasma, individual animals ([3]; G2 (#4-#6): 4% composition, Day 17 2 hour after dosing): 0.0042 µg/mL and 0.00248 µg/mL
concentration in plasma, individual animals ([3]; G2 (#4-#6): 4% composition, Day 17 4 hour after dosing): 0.00356 µg/mL and 0.00483 µg/mL
concentration in plasma, individual animals ([3]; G2 (#4-#6): 4% composition, Day 17 8 hour after dosing): 0.00302 µg/mL and 0.00162 µg/mL
concentration in plasma, individual animals ([3]; G2 (#4-#6): 4% composition, Day 17 12 hour after dosing): 0.02178 µg/mL
concentration in plasma, individual animals ([3]; G2 (#4-#6): 4% composition, Day 17 Before dosing): 0.0039 µg/mL and 0.00224 µg/mL
